The supplement of paper PMC3334620
Over roughly 33,000 sequences, “E-score (-0.5 to 0.5)” has its median near -0.016; the highest 2% begin near 0.3. The list shows a part of the results.

Target: T1, Yer184c (UniProt P39961)
T1 sequence: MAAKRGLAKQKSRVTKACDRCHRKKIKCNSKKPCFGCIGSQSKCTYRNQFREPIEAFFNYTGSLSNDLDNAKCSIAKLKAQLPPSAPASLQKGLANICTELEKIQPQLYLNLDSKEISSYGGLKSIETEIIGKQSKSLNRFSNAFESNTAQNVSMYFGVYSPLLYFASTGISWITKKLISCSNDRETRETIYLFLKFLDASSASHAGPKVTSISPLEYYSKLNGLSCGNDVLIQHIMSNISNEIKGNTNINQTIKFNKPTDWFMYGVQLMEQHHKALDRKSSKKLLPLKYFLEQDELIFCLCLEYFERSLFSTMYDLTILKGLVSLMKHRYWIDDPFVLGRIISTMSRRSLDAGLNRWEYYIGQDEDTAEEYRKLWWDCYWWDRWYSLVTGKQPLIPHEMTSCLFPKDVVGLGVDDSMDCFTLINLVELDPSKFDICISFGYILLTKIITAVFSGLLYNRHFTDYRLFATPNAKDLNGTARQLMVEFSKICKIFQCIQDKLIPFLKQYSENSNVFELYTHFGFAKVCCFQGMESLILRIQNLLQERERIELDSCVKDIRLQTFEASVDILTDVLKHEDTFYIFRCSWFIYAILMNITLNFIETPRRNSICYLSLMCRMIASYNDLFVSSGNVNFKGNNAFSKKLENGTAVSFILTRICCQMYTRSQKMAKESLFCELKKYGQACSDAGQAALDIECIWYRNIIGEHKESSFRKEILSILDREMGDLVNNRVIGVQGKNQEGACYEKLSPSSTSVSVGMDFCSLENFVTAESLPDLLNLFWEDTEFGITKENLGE
Assay: PBM E-score (8-mer binding enrichment) (E-score (-0.5 to 0.5)); higher = stronger / more preferred TF binding
Conditions: protein concentration: 100 nM; construct: GST-full length
Description: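 Universal 'all 10-mer' protein binding microarrays (Agilent AMADID 015681) probed with GST-tagged S. cerevisiae TFs (full-length or DBD) made by in vitro transcription/translation (PURExpress), about 100-200 nM. Bound TF was detected with fluorescent anti-GST. Each ungapped 8-mer (which stands for itself and its reverse complement) is scored by the PBM enrichment score (E-score), a modified Wilcoxon-Mann-Whitney statistic from -0.5 to +0.5, computed with the Universal PBM Analysis Suite. Scale: above 0.35 generally sequence-specific binding.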

Row | Sequence | PBM E-score
1 | CAGCGTCA | -0.113
2 | CCAGGTCA | -0.214
3 | AGGCTTAA | -0.0796
4 | AAATGAAA | 0.287
5 | CGTCGGAA | 0.24
6 | CGACTCGA | 0.0386
7 | ATCTCCGC | 0.14
8 | GGTATGTA | -0.219
9 | CAAGAACA | 0.0117
10 | CCACTTGC | -0.194
11 | ACCCATCT | -0.081
12 | CGCAAAGC | 0.16
13 | ACGAGGGA | -0.141
14 | CTCCGAAA | 0.266
15 | GAGATGGA | 0.0577
16 | GATTAGGA | 0.099
17 | CTCAGGAA | -0.169
18 | AGTTTAAG | 0.0408
19 | CTGAGACA | -0.0588
20 | TTAAGCAA | 0.0761
21 | ATCCAGTG | 0.0535
22 | CCGCGTTA | 0.0753
23 | GCGCTCGA | -0.183
24 | TAATTCTA | 0.159

Retrieved one by one from the list above:
Row | Sequence | PBM E-score
6 | CGACTCGA | 0.0386
18 | AGTTTAAG | 0.0408
3 | AGGCTTAA | -0.0796
8 | GGTATGTA | -0.219
11 | ACCCATCT | -0.081
1 | CAGCGTCA | -0.113
7 | ATCTCCGC | 0.14

Additional entries

Row | Sequence | PBM E-score
25 | CTCCTGGA | -0.336
26 | GCCGGACA | 0.36
27 | ACGTCGGG | -0.113
28 | GACTGTGA | -0.0703
29 | AGCCCATA | -0.198
30 | CTAGATGC | -0.0167
31 | AGGATTCC | -0.169
32 | AGCTCTTA | -0.037
33 | GGCCGCCA | -0.159
34 | CCATCTCC | 0.141
35 | AGGAACCT | 0.0988
36 | ATGTTATA | 0.112
37 | ACTCGCTC | -0.0141
38 | ATAGGCAA | -0.214
39 | GAATTACA | 0.191
40 | GCGGGAAA | 0.223
41 | ATGTCGGA | 0.202
42 | GGCTGAAA | 0.133
43 | CTCTCGCC | -0.18
44 | AGATCGAA | 0.196
45 | CGTGACCC | -0.02
46 | AGTGGCCG | 0.0237
47 | CCCATCGC | -0.244
48 | GTTTCTTA | 0.00026

Row | Sequence | PBM E-score
49 | AAAAGGTT | -0.0664
50 | ATTCATCC | 0.00529
51 | AGATAGTC | -0.101
52 | CCATAATA | 0.113
53 | CCCTGAGG | -0.338
54 | CAGTGATC | -0.00806
55 | TCTAGAGA | -0.291
56 | CGTATTAG | 0.227
57 | CGGAGGGA | 0.0777
58 | GAGAAACA | 0.136
59 | GAGTGTGA | -0.00585
60 | ATCCCTAA | -0.202
61 | CGGCCAAC | 0.131
62 | GCAGCGGC | -0.0532
63 | AAAGCCGC | 0.188
64 | CACACGTA | -0.348
65 | CCGTTGCG | 0.148
66 | ACGGTTAT | -0.0104
67 | CAATGAGA | -0.105
68 | ACCGTCCT | -0.186
69 | AACGATTG | 0.0036
70 | AAATTGGA | 0.0478
71 | ACCAGGTA | -0.157
72 | AGGTAGTG | -0.0589

Row | Sequence | PBM E-score
73 | CCTTGGAG | -0.114
74 | GAATAAAA | 0.178
75 | AGTCACCC | -0.176
76 | CGTCGGTA | 0.022
77 | ATATGATG | -0.00913
78 | GTTGTAAA | 0.00358
79 | TCCTAAGA | -0.0114
80 | AAACATGG | -0.032
81 | ATGCACAA | -0.0784
82 | AGGGCAGC | -0.143
83 | ACCAGCGC | -0.161
84 | GCTTGATA | 0.0725
85 | GCATACAA | 0.0771
86 | AACGGGAA | 0.25
87 | ACGTGTAG | -0.216
88 | ACCACGTG | -0.117
89 | GCATCCCC | -0.168
90 | ACGGCGAG | -0.0486
91 | GGACTCTA | -0.218
92 | ATATCGGG | 0.0298
93 | AATGAAGT | -0.00892
94 | TCAAATGA | 0.00719
